{
  "source": "patent US20200009176A1",
  "about": "“TREATMENT OF LEUKEMIA VIA THE ADMINISTRATION OF DOT1L INHIBITOR PINOMETOSTAT” (Epizyme, Inc., priority 2014, published 2020)",
  "tested_on": "leukemia cell lines MOLM-13, OCI-AML4, and SKM-1",
  "test": "Growth inhibition assays, pinometostat with RAS pathway inhibitors",
  "assay_type": "cell-based",
  "conditions": "pinometostat 3 μM, 300 nM, 150 nM or 75 nM plus SCH772984, Trametinib or Sorafenib; FIG. 13",
  "description": "Growth inhibition assays were performed using leukemia cell lines to determine whether there is any synergy between pinometostat and RAS pathway inhibitors. The leukemia cell lines used were MOLM-13, OCI-AML4, and SKM-1. For these studies, different RAS pathway inhibitors were used, including SCH772984 (e.g., an ERK inhibitor), Trametinib (e.g., a MEK inhibitor), and Sorafenib (e.g., a Raf kinase inhibitor).",
  "note": "At least one compound was matched to its structure with a doubt left.",
  "data": [
    {"smiles": "CC(=O)Nc1cccc(-n2c(=O)n(C3CC3)c(=O)c3c(Nc4ccc(I)cc4F)n(C)c(=O)c(C)c32)c1", "note": "[Trametinib]", "values": [
      {"measurement": "effect on inhibition of cell growth, combination of RAS pathway inhibitor and pinometostat", "result": "synergistic effect"}
    ]}
  ]
}
